We go through 21 molecules from US20250361295A1.

In this assay the target is cynomolgus (Macaca fascicularis) LILRB4 (cynomolgus (Macaca fascicularis)). As to the kind of experiment: FACS, CHO-S-cynoLILRB4 cells. For orientation: In flow cytometry, cells or beads pass a laser one at a time.

These are yes or no findings as the source states them, for the method shown. A result given as binding can be weak or reduced; the word gives no strength.

B1: 25-G9-G4-C12 (antibody, V domains shown)
VH: EVQLVESGGDLVKPGGSLKLSCAASGFTFSSHGMSWVRQTPDKRLEWVATINSGGYYTYYPDSVKGRFTISRDNAKNTLYLQMSSLKSEDTAMYYCARGQLGNWYFDVWGAGTTVTVSS
VL: DIVMTQSPAIMSASPGEKVTITCSASSSVSYMHWFQQKPGTSPKLWIYSTSNLASGVPARFSGSGSGTSYSLTISRMEAEDAATYYCQQRSSYPLTFGAGTKLELK
With B1, the binding entry is recorded as “no binding”.

B2: 42-C8-A12-F3-D11 (antibody, V domains shown)
VH: EVHLVESGGDLVKPGGSLKLSCAASGFTFSSHGMSWVRQTPDKRLEWVATISSGGIYTYHPDSVKGRFSISRDNAKKTLYLQMSSLKSEDTGIYYCTRGQVGNWYFDVWGAGTTVTVSS
VL: DIVITQSPAIMSASPGEKVTINCSASSSVSYMHWFQQTPGTSPKLWIYSTSNLASGVPARFSGSGSGTFYSLTISRMEAEDAATYYCQQRSSYPLTFGAGTKLELK
Turning to B2, the binding result is on record as “no binding”.

B3: 36-F4-H1-D9 (antibody, V domains shown)
VH: EVKLLESGGGLVQPGGSLKLSCAASGFDFSRYWMIWVRQAPEKGLEWIGEINPDSSTINYTPSLKDKFIISRDNAKNTLYLQMSKVRSEDTALYYCARPYYRYDVGYFDVWGAGTTVTVSS
VL: DIVMTQAPKVLLVSAGDRVTISCKASQSVSNAVVWYQQKPGQSPKLLIFYASNRYTGVPDRFTGSGYGTDFTFSISTVQAEDLAVYFCQQDYSSPWTFGGGTKLEIK
As for B3, the binding result is given as “no binding”.

B4: ch36-F4-H1-D9 (antibody, V domains shown)
VH: EVKLLESGGGLVQPGGSLKLSCAASGFDFSRYWMIWVRQAPEKGLEWIGEINPDSSTINYTPSLKDKFIISRDNAKNTLYLQMSKVRSEDTALYYCARPYYRYDVGYFDVWGAGTTVTVSS
VL: DIVMTQAPKVLLVSAGDRVTISCKASQSVSNAVVWYQQKPGQSPKLLIFYASNRYTGVPDRFTGSGYGTDFTFSISTVQAEDLAVYFCQQDYSSPWTFGGGTKLEIK
As to B4, the binding entry is “no binding (tested: up to 66.67 nM)”.

B5: 10-H9-E3-G3 (antibody, V domains shown)
VH: EVQRVESGGGLVQPGGSRKLSCAASGFTFSSFGMHWVRQAPEKGLEWVAYISSGSSAMYYADTVKGRFTISRDNPKNTLFLQMTSLRSEDTAMYYCARSDGKGAMDYWGQGTSVTVSS
VL: DIQMTQTTSSLSASLGDRVTISCRASQDISNYLNWYQQKPDGTVKLLVYYTSRLHSGVPSRFSGSGSGTDYSLTISNLEQEDIATYFCQQGNTLPWTFGGGTKLEIK
With B5, the binding entry is recorded as “no binding”.

B6: 2-H1-D7-E5-D5 (antibody, V domains shown)
VH: EVHLVESGGGLVQPGGSRKLSCAASGFTFSSFGMHWVRQPPEKGLEWVAYISSGSSSIYYADTVKGRFTISRDNPKNTLFLQMTSLRSEDTAMYYCARGTGTGAMDYWGQGTSVTVSS
VL: DIQMTQTTSSLSASLGDRVTISCRTSQDISNYLNWYQQKPDGTVKLLIYYTSKLHSGVPSRFSGSGSGTDYSLTISNLDQEDIATYFCQQGNTLPWTFGGGTKLEIK
Take B6: the binding entry was “no binding”.

B7: 25-E7-A10-H6 (antibody, V domains shown)
VH: EVQLVESGGGLVQPGGSRKLSCAASGFTFSTFGMHWVRQAPEKGLEWVAYISSGSSTIYYADTVKGRFTISRDNPKNTLFLQMTSLRSEDTAMYYCARSTGTGAMDYWGQGTSVTVSS
VL: DIQMTQTTSSLSASLGDRVTISCRASQDISKYLNWYQQKPDGTVKLLIYYTSRLHSGVPSRFSGSGSGTDYSLTISNLEQEDIATYFCQQGNTLPWTFGGGTKLEIK
Consider B7, for which the binding entry is “no binding”.

B8: ch27-F11-E10-G10 (antibody, V domains shown)
VH: EVQLVESGGGLVQPGGSRKLSCAASGFTFSSFGMHWVRQAPEKGLEWVAYISSGSSTIYYADTVKGRFSISRDNPKNTLFLQMTSLRSEDTAMFYCARSTGTGAMDYWGQGTSVTVSS
VL: DIQMTQTTSSLSASLGDRVTISCRASQDISNYLNWYQQKPDGTVKLLIYYTSRLHSGVPSRFSGSGSGTDYSLTISNLEQEDIATYFCQQGNTLPWTFGGGTKLELK
As for B8, the binding result was “no binding (tested: up to 66.67 nM)”.

B9: 27-D11-C2-A10 (antibody, V domains shown)
VH: EVQLVESGGGLVQPGGSRKLSCAASGFTFSVFGVHWVRQAPEKGLEWVAYISSGSNTIHYADTVKGRFTISRDIPKNTLFLQMTSLRSEDTAMYYCARSSGTGAMDYWGQGTSVTVSS
VL: DIQMTQSTSSLSASLGDRVSISCRASQDISNYLNWYQQKPDGAVKLLIYYTSRLHSGVPSRFSGSGSGTDYSLTISNLDQEDIATYFCQQGNTLPWTFGGGTKLELK
Turning to B9, the binding result is listed as “no binding”.

B10: ch27-G5-E9-B8 (antibody, V domains shown)
VH: EVQLVESGGGLVQPGGSRKLSCAASGFTFSSFGMHWVRQAPEKGLEWVAYISSGSSTIYYADTVKGRFTISRDNPKNTLFLQMTSLRSEDTAMYYCARSTGTGAMDYWGQGTSVTVSS
VL: DIQMTQTTSSLSASLGDSVTFSCRASQDISNYLNWYQQKPDGTVKLLISYTSRLHSGVPSRFSGSGSGTDYSLTISNLEQEDIATYFCQQGNALPWTFGGGTKLEIK
As for B10, the binding result was “no binding (tested: up to 66.67 nM)”.

B11: 26-H9-B9-B7 (antibody, V domains shown)
VH: EVQRVESGGGLVQPGGSRKLSCAASGFTFSSFGMHWVRQAPEKGLEWVAYISSGSSTIYYADTVKGRFTISRDNPKNTLFLQMTSLRSEDTAMYYCARSDGKGAMDYWGQGTSVTVSS
VL: DIVMTQSTSSLSASLGDRVTISCRASQDISNYLNWYQQKPDGTVKLLIYYTSRLHSGVPSRFSGSGSGTDYSLTISNLEQEDIATYFCQQGNTLPWTFGGGTKLEIK
On to B11, for which the binding result is “no binding”.

B12: 43-D12-F3-G11 (antibody, V domains shown)
VH: EVQVVESGPGLVAPSQSLSITCTVSGFSLTSYGVSWVRQPPGKGLEWLGVIWADGSTNYHSALLSRLSISKDNSKSQVFLKLNSLQTDDTATYYCAKGHWDGFAYWGQGTLVAVSA
VL: DIVLTQSPAIMSTSPGEKVTLTCSASSSITSSYLYWYQQKPGSSPKLWIYSTSNLASGVPARFSGSGSGTSYYLTISSMEAEDAASYFCHQWSSYPPTFGGGTKLELK
Turning to B12, the binding result was “no binding”.

B13: ch43-D12-F3-G11 (antibody, V domains shown)
VH: EVQVVESGPGLVAPSQSLSITCTVSGFSLTSYGVSWVRQPPGKGLEWLGVIWADGSTNYHSALLSRLSISKDNSKSQVFLKLNSLQTDDTATYYCAKGHWDGFAYWGQGTLVAVSA
VL: DIVLTQSPAIMSTSPGEKVTLTCSASSSITSSYLYWYQQKPGSSPKLWIYSTSNLASGVPARFSGSGSGTSYYLTISSMEAEDAASYFCHQWSSYPPTFGGGTKLELK
As to B13, the binding entry is listed as “no binding (tested: up to 66.67 nM)”.

B14: 2-H8-C9-F7-E2 (antibody, V domains shown)
VH: EVQLQQSGAELVKPGASVKLSCKASGYTFTNYWMHWVKQRPGQGLEWIGEINPSNGRTNYNEKFKSKATLTVDKSSSTAYMQLSSLTSEDSAVYYCARGSLTTVVPFDYWGQGTTLTVSS
VL: DIQMTQTPSSLSASLGGKVTITCKASQDINNYIAWYQHKPGKGPRLLIHYTSTLQPGIPSRFSGSGSGRDYSFSISNLEPEDIATYFCLQYDILLTFGGGTKLEK
In the case of B14, the binding result is recorded as “no binding”.

B15: 48-E11-H7-B5 (antibody, V domains shown)
VH: EVQLVESGGGLVKPGGSLKLSCAASGFTFSSYAMSWVRQTPEKRLEWVASITIGDDTYYPDSVKGRFTISRDHAKNILYLQVSSLRSEDTAMYSCARGVNSYGSSYRYFDVWGAGTTVTVSS
VL: DIVMTQSHKFMSTSVGDRVSITCKASQDVSTAVAWYQQKPGQSPKLLIYWASTRHTGVPDRFTGSGSGTDYTLTISSVQAEDLALYYCQQHYSIPFTFGAGTKLEK
For B15, the binding result is “no binding”.

B16: ch48-E11-H7-B5 (antibody, V domains shown)
VH: EVQLVESGGGLVKPGGSLKLSCAASGFTFSSYAMSWVRQTPEKRLEWVASITIGDDTYYPDSVKGRFTISRDHAKNILYLQVSSLRSEDTAMYSCARGVNSYGSSYRYFDVWGAGTTVTVSS
VL: DIVMTQSHKFMSTSVGDRVSITCKASQDVSTAVAWYQQKPGQSPKLLIYWASTRHTGVPDRFTGSGSGTDYTLTISSVQAEDLALYYCQQHYSIPFTFGAGTKLEK
As for B16, the binding result was “no binding (tested: up to 66.67 nM)”.

B17: 7-B4-C1-C9 (antibody, V domains shown)
VH: EVQLQQSGTELVKPGASVKLSCKASGYTFTNYWMHWVKQRPGQGLEWIGEINPSNGRTNYNEKFKTKATLTVDKSSSTAYMQLSSLTSEDSAVYYCARSTYYGYDWYFDVWGAGTTVTVSS
VL: DIVLTQSPSSMYASLGERVTITCKASQDINSYLSWFQQKPGKSPKTLIYRANRLLDGVPSRFSGGGSGQDYSLTISSLEHEDMGIYYCLQCDEFPHTFGGGTKLEIK
On to B17, for which the binding entry is recorded as “no binding”.

B18: 8-B3-F6-H8 (antibody, V domains shown)
VH: EVKVIESGGGLVQPGGSLKLSCAASGFDFSRYWMSWVRQAPGKGLEWIGEINPDSSAINYTPSLKDKFIISRDNAKNTLYLQMSKVRSEDTALYYCATSMTMDYWGQGTSVTVSS
VL: DIVMTQSPSSMYASLGERVTITCKASQDIKSYLSWYQQKPWKSPKTLIYYATSLADGVPSRFSGSGSGQDYSLTISSLESDDTATYYCLQHGESPYTFGGGTKLEK
On to B18, for which the binding entry is recorded as “no binding”.

B19: ch8-B3-F6-H8 (antibody, V domains shown)
VH: EVKVIESGGGLVQPGGSLKLSCAASGFDFSRYWMSWVRQAPGKGLEWIGEINPDSSAINYTPSLKDKFIISRDNAKNTLYLQMSKVRSEDTALYYCATSMTMDYWGQGTSVTVSS
VL: DIVMTQSPSSMYASLGERVTITCKASQDIKSYLSWYQQKPWKSPKTLIYYATSLADGVPSRFSGSGSGQDYSLTISSLESDDTATYYCLQHGESPYTFGGGTKLEK
For B19, the binding result was “no binding (tested: up to 66.67 nM)”.

B20: 44-F10-B6-D4 (antibody, V domains shown)
VH: EVHLVESGGGLVKPGGSLKLSCAASGFTFSSYAMSWVRQTPEKRLEWVATISSGGSYIYYPDSVKGRFTISRDNAKNTLYLQMSSLRSEDTAMYYCARQDWDGGDYYAMDYWGQGTSVTVSS
VL: DIVMTQSPSSLAVSAGEKVTMSCKSSQSVLYSSNQKNFLAWYQQKPGQSPKLLIYWASTRESGVPDRFTGSGSGTDFTLTISSVQAEDLAVYYCHQYLSSLTFGAGTKLELK
Regarding B20, the binding result was “binds”.

B21: ch44-F10-B6-D4 (antibody, V domains shown)
VH: EVHLVESGGGLVKPGGSLKLSCAASGFTFSSYAMSWVRQTPEKRLEWVATISSGGSYIYYPDSVKGRFTISRDNAKNTLYLQMSSLRSEDTAMYYCARQDWDGGDYYAMDYWGQGTSVTVSS
VL: DIVMTQSPSSLAVSAGEKVTMSCKSSQSVLYSSNQKNFLAWYQQKPGQSPKLLIYWASTRESGVPDRFTGSGSGTDFTLTISSVQAEDLAVYYCHQYLSSLTFGAGTKLELK
For B21, the binding entry is “binds”.
